# PubChem BioAssay AID1347426 (Functional Genomics Laboratory (NCATS/FGL), 2020)
# Among all 31,000 sequences or so, about 1,400 (4.5%) were called active.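 How the source made its calls: active means median seed-adjusted z-score above 1 or below -1; inactive means the rest.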 Some of the results follow.
# Test: Novel Modifiers of Survival Motor Neuron (SMN) Protein: Gene Identification via Genome-wide siRNA Screen;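 further: luminescence tracks full-length SMN protein made from the SMN2 reporter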
# Conditions: HEK293T SMN2-luciferase reporter, siRNA knockdown, 72 h; actives lie on both sides
# Summary of the method: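 siRNA screen, 10418 genes ×3 siRNAs; 1 pmol/well, lipid reverse transfection into HEK293T SMN2-luc reporter line. 72 h, 37 °C, 5% CO2; ONE-Glo readout. Data: neg-ctrl normalized, log10, MAD; hit = MAD >1.0 or < -1.0.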
row,Sequence,median seed-adjusted z-score
1,CAGCCGAAAUGUGACAACATT against SMOC2,inactive: -0.72
2,GUGAGGAACUUUAUCGAAATT against PNPLA8,inactive: 0.0576
3,GUUACCCACUGGACCUAGATT against FTSJ1,inactive: 0.0774
4,CCAGGGUGAGUUAAAGAGATT against MYL4,inactive: -0.388
5,CGAUGAAAUGAGUCUGAUUTT against P4HTM,inactive: -0.257
6,GGACGAAUAGAAGUAAAUATT against TFB2M,inactive: 0.206
7,GCAGAGAAACCAUUCCGAUTT against ZNF224,inactive: 0.0073
8,GCGUAAACCUUGAAAAUGATT against ZSCAN21,inactive: 0.687
9,GGCUGUUUGUGAUGGAUAATT against GALNT2,inactive: 0.0798
10,UGAUGGGACUUUUUGUGUUTT against PPP1R14B,inactive: 0.205
11,CCCUGGACAUGUUCGCUGATT against CD2BP2,inactive: -0.455
12,GUACAGCGAGUAAUAGAUATT against PPP3R1,inactive: 0.18
13,GGAGCACAGAUUGUUCAAATT against NFYA,inactive: 0.437
14,GGAUGAUGCUGACCGUGAATT against KIF13B,inactive: 0.456
15,GGACAGUAAUCUCAUUGUUTT against MMP10,inactive: 0.902
16,CAGACGACCUGGAAACAGUTT against USP31,inactive: -0.755
17,GGAUAGGAGUCAUCAGCCUTT against SSTR3,inactive: 0
18,GCAGACAGGUAAGUAAAGATT against HES7,inactive: -0.286
19,GGUGGACGGUGUUCACUUUTT against ZBTB17,inactive: 0.0544
20,GCUCAUCACAGCUCACGUATT against IRF4,inactive: -0.332
21,CAGUCUUUGUGGGACAAGUTT against ARFRP1,inactive: -0.329
22,GCUUCACCAGGGACGUGAATT against CD1D,inactive: -0.579
23,CCAACAUGGUUCUAACCUUTT against NDUFS4,inactive: 0.336
24,CAGCCUGGAGUAUACAGUATT against ICMT,inactive: -0.0602
25,CGUUCAGUCCGUCACCCAATT against GATAD2A,inactive: -0.715
26,GCAAAGGUUUGAGUUCCAATT against ZNF621,inactive: 0
27,GGAAUUAUUAGACUACAAATT against PSAT1,inactive: -0.706
28,GGCUCUCGUAUGUAACGUATT against USP24,inactive: 0.101
29,CAAAAUUGCGAGUCCAUGATT against PLCZ1,inactive: 0
30,GGACCUUUGUAAAACGAAATT against MMEL1,inactive: 0.325

# Exported with bars between the fields: entries from further up.
row | Sequence | median seed-adjusted z-score
2 | GUGAGGAACUUUAUCGAAATT against PNPLA8 | inactive: 0.0576
3 | GUUACCCACUGGACCUAGATT against FTSJ1 | inactive: 0.0774
